# Measurements from the supplement of paper PMC8728848.
# Some of the results follow.
# B1: Blon2355mut (Bifidobacterium longum) (protein)
# chain: MVQEPTLEWHVIPEPTNVEPLVGTCSLPLSGTVVEQRGADDAEAVFARQLVDDIKRVCGGRWQVASGEVQREVTLRTSPSLDDWSYVLEVSPDGVVITGSGFEGVRDGVQTLRQIIRQIGLTIPCMVIRDRPAFSTRGYYLDVTRGRVPSMAWLKSWVDRLCFYKYNQFQLYIEHTFQFNGLSEVWRGADPLTSSDILELDSYCAARGIELVPSVSTFGHHYTALRTRQLRDLGEFPEDADRPFSLIERMTHHTLNITDERSYEFSTSLIDELMPLFRSRKFNICANETFDLGKGRSKQESAKRGVGAMYADFVERLCRHVDDRGHDVMVWADVALEHPEIIDTLPKNITWLNWQYEPNVDDGTTAALADAGATQMVCPAVWCWNALIPRIDDAWNNITRMARHGRAHDVSGMLVTDWGDFGHVNDPRMSVPGMIFGAQQSWNPDAELSEVDMLSRISTIEYGDHTGSVVGALRGASAKGGFSWSDLVTYLELDDGRGGCNTEIVRVMGCLEAYRNDLPQSGQARLADARVSMLRTLRDSILAGRELNGKLDDAAKDITQLLRVAGDPSSAAVWSLAIDGQRLLNRVGLALLAAHGVVRQDEAGIDAAKLADELECWTEQYSRLWHEVSRQSELARIQHVVWRAADVLRSI
# Assays:
# Assay in all cases: glycan array binding signal (z-score within array); higher = stronger binding
# Conditions in all cases: glycan notation: IUPAC condensed, linker removed
# [1] = biological target: Neu5Ac(a2-3)Gal(b1-4)GlcNAc(b1-6)[Gal(b1-3)]GalNAc
# Procedure, shortened: (§1)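 Glycan array binding is given as a within-array Z-score, which can be read as non-binding when negative. The arrays, 3228 of them, came from the Consortium for Functional Glycomics database and were retained only where the protein sequence was available. Z-scores were averaged across arrays of the same protein sequence at different concentrations or buffers and across linkers.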
# [2] = biological target: Neu5Ac(a2-3)Gal(b1-4)GlcNAc(b1-6)[Neu5Ac(a2-3)Gal(b1-3)]GalNAc
# Procedure, shortened: as §1
# [3] = biological target: Neu5Ac(a2-3)Gal(b1-4)GlcNAc6S
# Procedure, shortened: as §1
# [4] = biological target: Neu5Ac(a2-3)Gal(b1-4)[Fuc(a1-3)]GlcNAc
# Procedure, shortened: as §1
# [5] = biological target: Neu5Ac(a2-3)Gal(b1-4)[Fuc(a1-3)]GlcNAc(b1-2)Man
# Procedure, shortened: as §1
# [6] = biological target: Neu5Ac(a2-3)Gal(b1-4)[Fuc(a1-3)]GlcNAc(b1-3)Gal
# Procedure, shortened: as §1
# [7] = biological target: Neu5Ac(a2-3)Gal(b1-4)[Fuc(a1-3)]GlcNAc(b1-3)Gal(b1-4)GlcNAc
# Procedure, shortened: as §1
# [8] = biological target: Neu5Ac(a2-3)Gal(b1-4)[Fuc(a1-3)]GlcNAc(b1-3)Gal(b1-4)[Fuc(a1-3)]GlcNAc(b1-3)Gal(b1-4)[Fuc(a1-3)]GlcNAc
# Procedure, shortened: as §1
# [9] = biological target: Neu5Ac(a2-3)Gal(b1-4)[Fuc(a1-3)]GlcNAc(b1-3)GalNAc
# Procedure, shortened: as §1
# [10] = biological target: Neu5Ac(a2-3)Gal(b1-4)[Fuc(a1-3)]GlcNAc(b1-6)[Gal(b1-3)]GalNAc
# Procedure, shortened: as §1
# [11] = biological target: Neu5Ac(a2-3)Gal(b1-4)[Fuc(a1-3)]GlcNAc(b1-6)[Neu5Ac(a2-3)Gal(b1-3)]GalNAc
# Procedure, shortened: as §1
# [12] = biological target: Neu5Ac(a2-3)Gal(b1-4)[Fuc(a1-3)]GlcNAc6S
# Procedure, shortened: as §1
# [13] = biological target: Neu5Ac(a2-3)Gal6S(b1-4)GlcNAc
# Procedure, shortened: as §1
# [14] = biological target: Neu5Ac(a2-3)Gal6S(b1-4)[Fuc(a1-3)]GlcNAc
# Procedure, shortened: as §1
# Neu5Ac(a2-3)GalNAc = biological target: Neu5Ac(a2-3)GalNAc
# Procedure, shortened: as §1
# [15] = biological target: Neu5Ac(a2-3)GalNAc(b1-4)GlcNAc
# Procedure, shortened: as §1
# [16] = biological target: Neu5Ac(a2-3)[GalNAc(b1-4)]Gal(b1-4)Glc
# Procedure, shortened: as §1
# [17] = biological target: Neu5Ac(a2-3)[GalNAc(b1-4)]Gal(b1-4)GlcNAc
# Procedure, shortened: as §1
# [18] = biological target: Neu5Ac(a2-3)[GalNAc(b1-4)]Gal(b1-4)GlcNAc(b1-3)GalNAc
# Procedure, shortened: as §1
# [19] = biological target: Neu5Ac(a2-3)[Neu5Ac(a2-6)]GalNAc
# Procedure, shortened: as §1
# Neu5Ac(a2-6)Gal = biological target: Neu5Ac(a2-6)Gal
# Procedure, shortened: as §1
# [20] = biological target: Neu5Ac(a2-6)Gal(b1-3)GlcNAc(b1-3)[Gal(b1-4)GlcNAc(b1-6)]Gal(b1-4)Glc
# Procedure, shortened: as §1
# Neu5Ac(a2-6)Gal(b1-4)Glc = biological target: Neu5Ac(a2-6)Gal(b1-4)Glc
# Procedure, shortened: as §1
# [21] = biological target: Neu5Ac(a2-6)Gal(b1-4)GlcNAc
# Procedure, shortened: as §1
# [22] = biological target: Neu5Ac(a2-6)Gal(b1-4)GlcNAc(b1-2)Man
# Procedure, shortened: as §1
# [23] = biological target: Neu5Ac(a2-6)Gal(b1-4)GlcNAc(b1-2)Man(a1-3)Man(b1-4)GlcNAc(b1-4)GlcNAc
# Procedure, shortened: as §1
# [24] = biological target: Neu5Ac(a2-6)Gal(b1-4)GlcNAc(b1-2)Man(a1-3)[Gal(b1-4)GlcNAc(b1-2)Man(a1-6)]Man(b1-4)GlcNAc(b1-4)GlcNAc
# Procedure, shortened: as §1
# [25] = biological target: Neu5Ac(a2-6)Gal(b1-4)GlcNAc(b1-2)Man(a1-3)[GlcNAc(b1-2)Man(a1-6)]Man(b1-4)GlcNAc(b1-4)GlcNAc
# Procedure, shortened: as §1
# [26] = biological target: Neu5Ac(a2-6)Gal(b1-4)GlcNAc(b1-2)Man(a1-3)[GlcNAc(b1-4)][Neu5Ac(a2-6)Gal(b1-4)GlcNAc(b1-2)Man(a1-6)]Man(b1-4)GlcNAc(b1-4)GlcNAc
# Procedure, shortened: as §1
# [27] = biological target: Neu5Ac(a2-6)Gal(b1-4)GlcNAc(b1-2)Man(a1-3)[Man(a1-6)]Man(b1-4)GlcNAc(b1-4)GlcNAc
# Procedure, shortened: as §1
binder,measurement,setting,value
B1,glycan array binding signal (z-score),[1],-0.276
same,glycan array binding signal (z-score),[2],-0.218
same,glycan array binding signal (z-score),[3],-0.793
same,glycan array binding signal (z-score),[4],-0.661
same,glycan array binding signal (z-score),[5],1.4
same,glycan array binding signal (z-score),[6],-0.628
same,glycan array binding signal (z-score),[7],1.5
same,glycan array binding signal (z-score),[8],-0.579
same,glycan array binding signal (z-score),[9],0.838
same,glycan array binding signal (z-score),[10],-0.085
same,glycan array binding signal (z-score),[11],1.6
same,glycan array binding signal (z-score),[12],0.298
same,glycan array binding signal (z-score),[13],0.155
same,glycan array binding signal (z-score),[14],-1
same,glycan array binding signal (z-score),Neu5Ac(a2-3)GalNAc,-1.02
same,glycan array binding signal (z-score),[15],-0.019
same,glycan array binding signal (z-score),[16],-0.231
same,glycan array binding signal (z-score),[17],-0.608
same,glycan array binding signal (z-score),[18],0.04
same,glycan array binding signal (z-score),[19],0.11
same,glycan array binding signal (z-score),Neu5Ac(a2-6)Gal,-0.235
same,glycan array binding signal (z-score),[20],0.036
same,glycan array binding signal (z-score),Neu5Ac(a2-6)Gal(b1-4)Glc,-0.489
same,glycan array binding signal (z-score),[21],-0.564
same,glycan array binding signal (z-score),[22],-0.331
same,glycan array binding signal (z-score),[23],-0.123
same,glycan array binding signal (z-score),[24],-0.73
same,glycan array binding signal (z-score),[25],-1.3
same,glycan array binding signal (z-score),[26],-0.322
same,glycan array binding signal (z-score),[27],-0.242

# 8 neighbouring records out of the list so far:
binder,measurement,setting,value
B1,glycan array binding signal (z-score),[14],-1
same,glycan array binding signal (z-score),Neu5Ac(a2-3)GalNAc,-1.02
same,glycan array binding signal (z-score),[15],-0.019
same,glycan array binding signal (z-score),[16],-0.231
same,glycan array binding signal (z-score),[17],-0.608
same,glycan array binding signal (z-score),[18],0.04
same,glycan array binding signal (z-score),[19],0.11
same,glycan array binding signal (z-score),Neu5Ac(a2-6)Gal,-0.235
